From paper PMC10163288
Some of the results follow.

B1: il2ra_site2_3nfp_normal_mot_HHH_b1_06577_af2_000000152_0001_20_36_H_._HHH_b2_02897_af2_0001_0000500077_0000001_0 (protein)
chain: SSSSSEEEERVRELIEQAEELIKEGNPEEARKVLQEAALLAAELRDHELFALIQELIALLASSSS
B2: il2ra_site2_3nfp_sap_18_mot_HHH_b1_06589_000000230_0001_37_50_H_._5dfb590427825a07fdab5d2993dea047_0001_0001_0000100009_0000001_0_0001_af2pred_0001_af2pred (protein)
chain: SSSSSSDIEELKELLEELLKRGDEEELHHAVSEALALALDEGDEELEEIAREASDELNSSSSSSS
B3: il2ra_site1_1z92_normal_mot_9c3e5e2d2b9ffb70dc788f52fbfab6d5_0001_1_af2_000000067_0001_53_65_H_._6228ca5b8b091676f337a4c0a06dbe92_0001_0001_0000200024_0000001_0 … (protein)
chain: DKYLIEYLLKLIEKGDEELARKLIEKMLKASGIPPEEVEEIVEELLKLLKDGDPEKARELLRRAP
B4: il2ra_site2_3nfp_normal_mot_HHH_b1_05835_af2_000000128_0001_43_56_H_._a171aa182591c97700389b7a6f87ba9a_0001_af2_0001_0000200038_0000001_0 (protein)
chain: DEEEQLKELIKEGDPHAIFALAAILLFRLGNPEEANEELIEILKELLNVPPEEAREILEEVKEKG
B5: il2ra_site2_2erj_normal_mot_6ec3e94b46d95805cdcdc10c0c108f03_0001_af2_000000040_0001_36_50_H_._HHH_b2_01340_0001_0000400057_0000001_0 (protein)
chain: SSSSSLEELYELANLVMHLEYNGNPEEAEKVLEELRRLAEELGSEAARKVAEELQEHIEGSSSSS
B6: il2ra_site1_1z92_normal_mot_HHH_b2_03302_000000138_0001_21_37_H_._HHH_b1_05567_0001_0000100001_0000001_0 (protein)
chain: SSSSSDAEEALRELLEALERLLRRAGNPKTARQIEFILEALRLLGNEELVEKAEEILEELSSSSS
B7: il2ra_site1_1z92_normal_mot_HHH_b2_07217_af2_000000241_0001_1_19_H_._HHH_b1_01429_0001_0000200039_0000001_0 (protein)
chain: SSSSNVEEYHEELARALYKLIKLTGNPRSREQLEMFLHQARLLGDEELQRLIEELLEELRSSSSS
B8: il2ra_site1_1z92_sap_18_mot_HHH_b2_05038_af2_000000006_0001_39_52_H_._HHH_b2_05414_0001_0000600037_0000001_0_0001 (protein)
chain: DDRFLAEQVIRKIKRGNEEAVEKLVERFSRASGVPPEEVLKILLRLLRELGDPEAVEFIEELLRR
B9: il2ra_site2_3nfp_sap_19_mot_HHH_b1_00015_000000185_0001_19_35_H_._HHH_b2_06881_0001_0000400041_0000001_0_0001 (protein)
chain: SSSSSKEERLEELLEKARELLERGNPEEARRVLSELAQLAMELGDIEIFAELAKLFQEELSSSSS
B10: il2ra_site2_2erj_sap_22_mot_HHH_b1_00004_af2_000000098_0001_20_37_H_._HHH_b2_02853_0001_0000500009_0000001_0_0001 (protein)
chain: SSSSDKLHRLYELAVLLMHLVARNDREEFEKVVEEAEELAEELKSDSAKEAIEALERKLGSSSSS
B11: il2ra_site2_3nfp_normal_mot_HHH_b2_02437_000000052_0001_42_56_H_._HHH_b2_03460_af2_0001_0000400013_0000001_0 (protein)
chain: SSSSDVEERVEELLEQAERLFKEGDEEEAERFLAEAVQLAFENRDTELFVLVAEVLYRLASSSSS
B12: il2ra_site1_2b5i_sap_19_mot_HHH_b1_08546_af2_000000241_0001_22_37_H_._HHH_b1_05409_0001_0000300014_0000001_0_0001 (protein)
chain: SSSSDEEEAEELFHEASRAWKNGNPEEAEELLEKALELAERENDETAERDIRFMLEHVRQSSSSS
B13: il2ra_site2_2erj_normal_mot_90f6a21de4ed711cb697bb9f61d9c40c_0001_af2_000000135_0001_36_50_H_._HHH_b2_04566_af2_0001_0000800023_0000001_0_af2pred_0001_af2pred (protein)
chain: SSSDEEELQEELERLVEELVKELGLSQRLERFLRLQVELLIEQGASREEAERFIKASAKLLSSSS
B14: il2ra_site1_2b5i_normal_mot_HHH_b1_03543_af2_000000000_0001_42_54_H_._HHH_b1_06556_af2_0001_0000200023_0000001_0 (protein)
chain: SSSSDDRVDELFRKASRLYQNGNPEEAKEVVEKALELAEELGDEKLREELEFMLERIERARSSSS
B15: il2ra_site1_2b5i_sap_10_mot_HHH_b1_01192_000000046_0001_1_19_H_._520760a1b3033c0d7e8c6ec61dbb0d93_0001_1_0001_0000200013_0000001_0_0001 (protein)
chain: SSSSSTQRAFEASLRLLESALEQIDDEEVRERVEQLLEEAREKNDKRLLREAMRLAQEYLSSSSS
B16: il2ra_site1_2b5i_sap_15_mot_8958d2aaae642190dac4a9460e01c591_0001_af2_000000060_0001_1_13_H_._HHH_b2_06679_af2_0001_0000300018_0000001_0_0001 (protein)
chain: SSSSNEEARELQELFHRADELDKQGNEEEARKVLEEAEELAEEANSRAILLFVRWALEQFSSSSS
B17: il2ra_site1_3nfp_sap_15_mot_HHH_b1_01417_af2_000000204_0001_1_19_H_._9dba988b99a1581a42d8501449c0ed8b_0001_0001_0000500055_0000001_0_0001_af2pred_0001_af2pred (protein)
chain: SSSSSKLERLSKLARELYEARKNGDKEEARELAEELLELAEELNDRIARLLAERFERLLSSSSSS
B18: il2ra_site2_3nfp_normal_mot_HHH_b1_05437_000000005_0001_40_57_H_._HHH_b1_02636_af2_0001_0000500018_0000001_0 (protein)
chain: SSSSDEAEERVKELLERAEEARKRGDPFKAFALLAEALFIAWQLGDEELIQEVSEVTEHLRSSSS
B19: il2ra_site2_3nfp_normal_mot_HHH_b1_06613_af2_000000098_0001_23_40_H_._72a79b14e1a0e827e78e129a6f5f8f0c_0001_1_0001_0000300023_0000001_0 (protein)
chain: DRELSQRIFELAERGDPVAHSLFALLADVRYKGDPELRELLEEALEALERGNPEEAKEIVHKALR

What follows are binders tested against il2ra, P01589 (assay: yeast display titration).

Q: B1 was tested. Which “apparent Kd” value did it give?
A: inactive: no binding seen

Q: With B2 as the binder, how does the “apparent Kd” value read?
A: inactive: no binding seen

Q: For B3, which “apparent Kd” value is on record?
A: inactive: no binding seen

Q: With B4 as the binder, how does the “apparent Kd” value read?
A: inactive: no binding seen

Q: With B5 as the binder, how does the “apparent Kd” value read?
A: inactive: no binding seen

Q: With B6 as the binder, how does the “apparent Kd” value read?
A: inactive: no binding seen

Q: How did the “apparent Kd” value turn out when B7 was run?
A: inactive: no binding seen

Q: For B8, which “apparent Kd” value is on record?
A: inactive: no binding seen

Q: How did the “apparent Kd” value turn out when B9 was run?
A: inactive: no binding seen

Q: B10 was tested. Which “apparent Kd” value did it give?
A: inactive: no binding seen

Q: With B11 as the binder, how does the “apparent Kd” value read?
A: inactive: no binding seen

Q: B12 was tested. Which “apparent Kd” value did it give?
A: inactive: no binding seen

Q: For B13, which “apparent Kd” value is on record?
A: inactive: no binding seen

Q: With B14 as the binder, how does the “apparent Kd” value read?
A: inactive: no binding seen

Q: For B15, which “apparent Kd” value is on record?
A: inactive: no binding seen

Q: With B16 as the binder, how does the “apparent Kd” value read?
A: inactive: no binding seen

Q: How did the “apparent Kd” value turn out when B17 was run?
A: inactive: no binding seen

Q: Which “apparent Kd” value does the source give for B18 here?
A: inactive: no binding seen

Q: B19 was tested. Which “apparent Kd” value did it give?
A: inactive: no binding seen
